Measured values reported in US6414029B1, “Vanadium complexes of monohydroxamates and pharmaceutical compositions comprising them” (priority 1997, dated 2002).

Tests used:
rat adipocytes [1] = conditions: Glu(γ)HXM 100 μM; staurosporine 30 min at 37° C. (FIG. 7)
rat adipocytes [2] = conditions: cited from earlier work

For `CN[C@@H]1C[C@H]2O[C@@](C)([C@@H]1OC)n1c3ccccc3c3c4c(c5c6ccccc6n2c5c31)C(=O)NC4` [Staurosporine], the “Inhibition of Glu(γ)HXM-evoked lipogenesis, in words” value (rat adipocytes [1]) is given as “in a dose-dependent manner” and the “Inhibition of vanadate-stimulated versus insulin-stimulated lipogenesis, in words” value (rat adipocytes [2]) is given as “preferentially inhibits the effect of vanadate”.
